# Values joined by “and” are separate entries in the source; they are usually repeats but may differ in a detail not shown here. Equal entries are not always repeated. Structures can show the parent of a compound that is named as a salt. ± gives the standard deviation of the averaged measurements. The list shows a part of the results. The data scatter; read single values as rough.
# Tested on: Salmonella enterica serovar Typhimurium ST313 D23580
# Experiment: normalized bacterial growth (OD600 20 h minus 0 h, interquartile-mean normalized) (fraction of plate interquartile mean); higher = more bacterial growth (less inhibition)
# Settings: LPM (pH 5.8, low phosphate, low Mg2+), concentration: 10 µM, temperature: 37 °C
row,Compound,normalized bacterial growth
1,"Nc1ncnc2c1ncn2[C@@H]1O[C@@H]2COP(=O)(O)O[C@H]2[C@H]1O [""Adenosine 3',5'-cyclic monophosphate""]",0.998
2,CC1=C(/C=C/C(C)=C/C=C/C(C)=C/C=C/C=C(C)/C=C/C=C(C)/C=C/C(=O)[C@]2(C)C[C@@H](O)CC2(C)C)C(C)(C)C[C@H](O)C1,0.764
3,C[C@H]1[C@H]2CC[C@H]3[C@@H]4CC=C5C[C@@H](N(C)C)CC[C@]5(C)[C@H]4CC[C@]23CN1C,1.14 ± 0.049
4,C[C@H]1[C@H]2CC[C@H]3[C@@H]4CC=C5C[C@@H](N(C)C)CC[C@]5(C)[C@H]4CC[C@]23CN1C [Conessine],1.25
5,CC(C)C(=O)c1c(C(C)C)nn2ccccc12 [Ibudilast],1.04
6,C[N+](C)(C)C[C@H](O)CC(=O)[O-],1.19
7,CC(C)=CCC[C@@H](C)[C@@H]1CC[C@]2(C)C3=C(CC[C@@]12C)[C@@]1(C)CC[C@H](O)C(C)(C)[C@@H]1CC3,1.14
8,CC(C)NCC(O)COc1cccc2[nH]ccc12 (stereo not given) [Pindolol],1.35
9,OC(CCN1CCCC1)(c1ccccc1)C1CCCCC1 (stereo not given),0.886
10,CC(=O)/C(=C\c1ccccc1)CC(=O)O,0.543
11,CC(CN(C)C)CN1c2ccccc2CCc2ccccc21 (stereo not given) [Trimipramine maleate],0.845
12,COC(=O)[C@H]1[C@H]2C[C@H]3c4[nH]c5ccccc5c4CCN3C[C@H]2CC[C@@H]1O,0.93
13,COC(=O)[C@H]1[C@H]2C[C@H]3c4[nH]c5ccccc5c4CCN3C[C@H]2CC[C@@H]1O [Rauwolscine hydrochloride],1.21
14,COC(=O)C(C)(N)Cc1ccc(O)cc1 (racemic) [alpha-Methyl-DL-tyrosine methyl ester hydrochloride],1.1
15,CCCCOc1ccc(C(=O)CCN2CCCCC2)cc1,0.819
16,C=C1C(=O)O[C@H]2[C@H]1CC/C(C)=C/CC[C@@]1(C)O[C@@H]21,0.86 ± 0.081
17,C=C1C(=O)O[C@H]2[C@H]1CC/C(C)=C/CC[C@@]1(C)O[C@@H]21 [Parthenolide],1.01
18,COc1cccc(O)c1O,1.05
19,COc1ccc(CCn2nnnc2C2(c3ccc(C)cc3)CC2)cc1 [Mephetyl tetrazole],0.916
20,CC(C)(C)CC(C)(C)c1ccc(OCCOCC[N+](C)(C)Cc2ccccc2)cc1,1.58
21,COc1ccc(CCC(=O)c2c(O)cc(O[C@@H]3O[C@H](CO)[C@@H](O)[C@H](O)[C@H]3O[C@@H]3O[C@@H](C)[C@H](O)[C@@H](O)[C@H]3O)cc2O)cc1O,1.1
22,CC(C)(C)NC(=O)[C@H]1CC[C@H]2[C@@H]3CC[C@H]4NC(=O)C=C[C@]4(C)[C@H]3CC[C@]12C [Finasteride],1
23,C=CC1=C(C)/C(=C/c2[nH]c(Cc3[nH]c(/C=C4\NC(=O)C(C)=C4C=C)c(C)c3CCC(=O)O)c(CCC(=O)O)c2C)NC1=O,0.571
24,Nc1nc(N)c2nc(-c3ccccc3)c(N)nc2n1 [Triamterene],1.21
25,C=C1CC[C@H](O)C/C1=C/C=C1\CCC[C@]2(C)[C@@H]([C@H](C)/C=C/[C@H](C)C(C)C)CC[C@@H]12,1.39

row,Compound,normalized bacterial growth
1,C=C1CC[C@H](O)C/C1=C/C=C1\CCC[C@]2(C)[C@@H]([C@H](C)/C=C/[C@H](C)C(C)C)CC[C@@H]12 [Calciferol],1.18
2,CC(C)=CCCC1(C)C=Cc2c(O)c3c(c(CC=C(C)C)c2O1)OC12C(=CCCC1C(C)(C)O[C@@]2(C/C=C(\C)C(=O)O)C(=O)O)C3=O (stereo not given in full),1.38
3,COc1cc(N)c(Cl)cc1C(=O)OCCN1CCCCC1,0.971
4,CC[C@H](c1ccc(O)cc1)[C@@H](CC)c1ccc(O)cc1 [Hexestrol],1
5,Cc1c(Nc2ncccc2C(=O)O)cccc1C(F)(F)F,1.02
6,Cc1c(Nc2ncccc2C(=O)O)cccc1C(F)(F)F [Flunixin meglumine],1.21
7,CCCCCC(O)CCCC(=O)O (stereo not given) [5-hydroxydecanoic acid sodium],1.14
8,C/C=C(\C)C(=O)O[C@@H]1c2c(ccc3ccc(=O)oc23)OC(C)(C)[C@@H]1OC(C)=O,1.09
9,"CC(C)CCC[C@@H](C)[C@H]1CC[C@H]2[C@@H]3C[C@@H](O)[C@@]4(O)C[C@@H](O)CC[C@]4(C)[C@H]3CC[C@]12C [""CHOLESTAN-3beta,5alpha,6beta-TRIOL""]",1.14
10,CCCN(CC1CC1)c1nc(C)nc(Nc2c(Cl)cc(Cl)cc2Cl)c1Cl,0.98
11,CC1O[C@H](O[C@]2(O[C@H]3CC[C@@]4(C)C(=CC[C@H]5[C@@H]6C[C@H]7[C@H]([C@H](C)[C@H]8CC[C@H](C)CN87)[C@@]6(C)CC[C@@H]54)C3)C[C@@H](O[C@@H]3OC(CO)[C@@H](O)[C@@H](O)C3O)[C@@H](O)C(CO)O2)C(O)[C@@H](O)[C@H]1O (stereo partly drawn) [Solanine alpha],0.942
12,CC1O[C@H](O[C@]2(O[C@H]3CC[C@@]4(C)C(=CC[C@H]5[C@@H]6C[C@H]7[C@H]([C@H](C)[C@H]8CC[C@H](C)CN87)[C@@]6(C)CC[C@@H]54)C3)C[C@@H](O[C@@H]3OC(CO)[C@@H](O)[C@@H](O)C3O)[C@@H](O)C(CO)O2)C(O)[C@@H](O)[C@H]1O (stereo not given in full),1.07
13,CS[C@H]1SC[C@H]2C(=O)N(C)[C@@H](C(C)C)C(=O)OC[C@@H](NC(=O)c3cnc4ccccc4n3)C(=O)N[C@@H](C)C(=O)N(C)[C@@H]1C(=O)N(C)[C@@H](C(C)C)C(=O)OC[C@@H](NC(=O)c1cnc3ccccc3n1)C(=O)N[C@@H](C)C(=O)N2C,0.424
14,Nc1ncnc2c1ncn2C1CCCC1 [9-cyclopentyladenine],0.965
15,C[C@]12CCC(=O)C=C1CC[C@@H]1[C@@H]2[C@@H](O)C[C@@]2(C)[C@H]1CC[C@]2(O)C(=O)COP(=O)(O)O,0.948
16,CC(=O)OCC(=O)[C@@]1(O)CC[C@H]2[C@@H]3CCC4=CC(=O)C=C[C@]4(C)[C@H]3[C@@H](O)C[C@@]21C,1.01
17,O=C1NC(c2cccc([N+](=O)[O-])c2)=CCN1c1ccccc1O [Icilin],1.35
18,COC(=O)[C@@]1(C)CCC[C@]2(C)c3ccc(O)c(C(C)C)c3CCC12 (stereo not given in full),0.874
19,O=C(O)CCCCCCCC(O)C(O)CCCCCCO (stereo not given),1.04
20,NC(=O)c1ccccc1 [Benzamide],0.906
21,CN(Cc1cc(Br)cc(Br)c1N)C1CCCCC1,0.76
22,C[C@H](CS)C(=O)N1CCC[C@H]1C(=O)O [Captopril],1.03
23,CC1(C)O[C@@H]2C[C@H]3[C@@H]4C[C@H](F)C5=CC(=O)C=C[C@]5(C)[C@H]4[C@@H](O)C[C@]3(C)[C@]2(C(=O)CO)O1 [Flunisolide],1.15
24,CC1(C)O[C@@H]2C[C@H]3[C@@H]4C[C@H](F)C5=CC(=O)C=C[C@]5(C)[C@H]4[C@@H](O)C[C@]3(C)[C@]2(C(=O)CO)O1,0.92
25,NCCc1ccc(O)c(O)c1 [Dopamine hydrochloride],0.881

# In another format: entries from further up.
row	Compound	normalized bacterial growth
5	Cc1c(Nc2ncccc2C(=O)O)cccc1C(F)(F)F	1.02
9	CC(C)CCC[C@@H](C)[C@H]1CC[C@H]2[C@@H]3C[C@@H](O)[C@@]4(O)C[C@@H](O)CC[C@]4(C)[C@H]3CC[C@]12C ["CHOLESTAN-3beta,5alpha,6beta-TRIOL"]	1.14
15	C[C@]12CCC(=O)C=C1CC[C@@H]1[C@@H]2[C@@H](O)C[C@@]2(C)[C@H]1CC[C@]2(O)C(=O)COP(=O)(O)O	0.948
16	CC(=O)OCC(=O)[C@@]1(O)CC[C@H]2[C@@H]3CCC4=CC(=O)C=C[C@]4(C)[C@H]3[C@@H](O)C[C@@]21C	1.01

# (listing goes on)

row,Compound,normalized bacterial growth
1,NCCc1ccc(O)c(O)c1,0.939
2,C[C@H](Cc1ccc(O)c(O)c1)[C@@H](C)Cc1ccc(O)c(O)c1,0.976
3,NC(N)=NC(N)=Nc1ccccc1 [1-Phenylbiguanide],1.01
4,CC(C)c1c(O)ccc2c1CCC1[C@@](C)(C=O)CCC[C@]21C (stereo not given in full),1.11
5,CCN1CCCC1CNC(=O)c1cc(S(N)(=O)=O)ccc1OC (stereo not given),1.13
6,CCN1CCCC1CNC(=O)c1cc(S(N)(=O)=O)ccc1OC (stereo not given) [()-Sulpiride],1.24
7,O=C(O)c1cc2cc(F)ccc2[nH]1 [5-Fluoroindole-2-carboxylic acid],1.38
8,CCCCc1oc2ccccc2c1C(=O)c1cc(I)c(OCCN(CC)CC)c(I)c1 [Amiodarone hydrochloride],1.7
9,O=c1[nH]c(=O)n([C@H]2C[C@H](O)[C@@H](CO)O2)cc1I [Idoxuridine],1.15
10,Cc1cccc(N(C)C(=S)Oc2ccc3ccccc3c2)c1,0.77
11,N[C@@H](COP(=O)(O)O)C(=O)O [O-Phospho-L-serine],1.05
12,CC1(C)O[C@@H]2C[C@H]3[C@@H]4C[C@H](F)C5=CC(=O)CC[C@]5(C)[C@H]4[C@@H](O)C[C@]3(C)[C@]2(C(=O)CO)O1 [Flurandrenolide],1.12
13,CC1(C)O[C@@H]2C[C@H]3[C@@H]4C[C@H](F)C5=CC(=O)CC[C@]5(C)[C@H]4[C@@H](O)C[C@]3(C)[C@]2(C(=O)CO)O1,0.941
14,CCC(=O)OCC(=O)[C@@]1(OC(=O)CC)[C@@H](C)C[C@H]2[C@@H]3CCC4=CC(=O)C=C[C@]4(C)[C@@]3(F)[C@@H](O)C[C@@]21C,0.865
15,CC1=CCc2c(cc3oc(C)cc(=O)c3c2O)OC1,0.988
16,CC1(C)CC2C1CCC1(C)OC1CCC2(C)O (stereo not given),1.24
17,COc1ccc(/C=C/c2cc(O)cc(O[C@@H]3O[C@H](CO)[C@@H](O)[C@H](O)[C@H]3O)c2)cc1O,0.953
18,NNC(=O)c1ccncc1,1.25
19,CN(C(=O)CCCOc1ccc2[nH]c(=O)ccc2c1)C1CCCCC1 [Cilostamide],1.03
20,CSCCC(N)C(=O)NC(CC(C)C)C(=O)NC(Cc1ccccc1)C(=O)O (stereo not given),1.04
21,CCC[C@@H]1C[C@@H](C(=O)N[C@@H]([C@H]2O[C@H](SC)[C@H](O)[C@@H](O)[C@H]2O)[C@@H](C)O)N(C)C1,1.25 and 1.16
22,CCC[C@@H]1C[C@@H](C(=O)N[C@@H]([C@H]2O[C@H](SC)[C@H](O)[C@@H](O)[C@H]2O)[C@@H](C)O)N(C)C1 [Lincomycin hydrochloride],1.05
23,C=C1C(N)CC2CC1C2(C)C (stereo not drawn) [3-AMINO-beta-PINENE],0.77
24,CN1CCCN=C1/C=C/c1cccs1 [Pyrantel tartrate],0.967
25,CN1CCCN=C1/C=C/c1cccs1,1.05
